Here are results for 31 molecules from the supplement of paper PMC12889115.

The subject of the test is Salmonella enterica serovar Typhimurium SL1344. Description: bacterial growth OD600 after 18 h with compound and polymyxin B; higher = more bacterial growth (less inhibition). The settings on record: 50 µM, Mueller-Hinton broth.

Some of the results follow. Values are raw readings; no control value is given beside them.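 Primary screen: polymyxin B was added at a level permeabilizing Salmonella outer membranes while sparing inner membranes. DMSO wells, both with and without polymyxin B, established maximum growth. Plate-to-plate variation meant each plate was ranked on its own, and the lowest-OD600 compounds were selected as hits.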

Consider `CC(=O)N1CCN(c2ncccc2CNC(=O)CC2=CCCCC2)CC1`, for which the “bacterial growth OD600” value (polymyxin B 0.75 µg/mL) is 0.842.

Take `COc1cc(CNC2CCCCCCC2)ccc1OCC(O)CN1CCSCC1` (stereo unspecified): the “bacterial growth OD600” value (polymyxin B 1 µg/mL) was found to be 0.899.

Take `CC(C)N(C)C(=O)CC(c1ccc(O)cc1)c1cccc(O)c1` (stereo unspecified): the “bacterial growth OD600” value (polymyxin B 1 µg/mL) worked out at 0.247.

For the molecule `C=CCS(=O)(=O)NCc1nc(NCCCc2ccccc2)c2ccccc2n1`, the “bacterial growth OD600” value (polymyxin B 0.75 µg/mL) turned out to be 0.775.

On to `COc1ccc(CC2(CCC(=O)N(C)CC3Cc4ccccc4O3)CCC(=O)N2)c2ccccc12` (stereo unspecified), for which the “bacterial growth OD600” value (polymyxin B 0.75 µg/mL) is 0.823.

In the case of `Cc1cc(-c2nn(-c3ccccc3F)cc2CN[C@H]2CCCCNC2=O)c(C)s1`, under “polymyxin B 1 µg/mL”, the “bacterial growth OD600” value came out at 0.588.

As to `CN(CC(=O)NC1CCCN(Cc2ccc(Cl)cc2)C1)Cc1cccnc1` (stereo unspecified), under “polymyxin B 1 µg/mL”, the “bacterial growth OD600” value is 1.1.

Regarding `CCCC(=O)N1CCCC1C(=O)Nc1ccccc1Oc1cccnc1` (stereo unspecified), under “polymyxin B 0.75 µg/mL”, the “bacterial growth OD600” value amounted to 1.02.

In the case of `C=CCCC(=O)N1CCCC(CCc2ccccc2)C1` (stereo unspecified), the “bacterial growth OD600” value (polymyxin B 0.75 µg/mL) was 0.545.

For the molecule `CCNC(=O)c1cn(CC(C)C)cc(C(=O)NCC(C)c2ccccc2)c1=O` (stereo unspecified), the “bacterial growth OD600” value (polymyxin B 0.75 µg/mL) is 0.754.

Consider `CCn1cc(CNC2CCCc3nc(N4CCC(CO)CC4)ncc32)cn1` (stereo unspecified), for which the “bacterial growth OD600” value (polymyxin B 0.75 µg/mL) stood at 0.723.

For the molecule `Cc1cnc(C(=O)N2CCc3c([nH]c4ccccc34)C2c2ccc(F)cc2)cn1` (stereo unspecified), the “bacterial growth OD600” value (polymyxin B 1 µg/mL) was 0.027.

Turning to `Cc1nc(N2CCCCCCC2)ncc1C(C)NC1CCSCC1` (stereo unspecified), the “bacterial growth OD600” value (polymyxin B 1 µg/mL) was 0.015.

Consider `CCC(=O)C1CCCN(Cc2cnc(S(=O)(=O)CC)n2CCc2ccccc2)C1` (stereo unspecified), for which the “bacterial growth OD600” value (polymyxin B 0.75 µg/mL) worked out at 0.769.

Take `Cc1cccc(CN2CCCC(O)(CN3CCOCC3)C2=O)c1` (stereo unspecified): under “polymyxin B 1 µg/mL”, the “bacterial growth OD600” value came to 0.927.

As to `O=C(c1ccc(NCC2CC2)nc1)N1CCCN(C2CCCCC2)CC1`, under “polymyxin B 0.75 µg/mL”, the “bacterial growth OD600” value worked out at 0.791.

For `CCOc1ccc2nc(N3CCCC3C(=O)NCC(C)(C)N3CCOCC3)nc(C)c2c1` (stereo unspecified), the “bacterial growth OD600” value (polymyxin B 0.75 µg/mL) came to 0.949.

For the molecule `COc1ccc(F)c(CC2(CCC(=O)N(CCO)Cc3ccccc3)CCC(=O)N2)c1` (stereo unspecified), the “bacterial growth OD600” value (polymyxin B 0.75 µg/mL) came out at 0.859.

`Cc1nonc1CN(C)C(=O)C1(N2CCCCC2)Cc2ccccc2C1`: the “bacterial growth OD600” value (polymyxin B 1 µg/mL) came to 0.002.

For the molecule `C[C@@H]1CN(C2(C(=O)NCCSc3ncn[nH]3)Cc3ccccc3C2)C[C@H](C)O1`, the “bacterial growth OD600” value (polymyxin B 1 µg/mL) is 1.2.

Consider `CCOC(=O)C1(CC2CC2)CCN(Cc2cn(CC(N)=O)c3ccccc23)CC1`, for which the “bacterial growth OD600” value (polymyxin B 0.75 µg/mL) is 0.832.

As to `O=C(N[C@H]1CCCCNC1=O)c1ccc(N2CCC(NCc3cccc(Cl)c3)CC2)cc1`, under “polymyxin B 0.75 µg/mL”, the “bacterial growth OD600” value is 0.784.

In the case of `CCn1nc(C)c(CN2CCCC(C(=O)c3cc(C)c(OC)c(C)c3)C2)c1C` (stereo unspecified), the “bacterial growth OD600” value (polymyxin B 1 µg/mL) is 1.03.

For the molecule `O=C(NC1CC(=O)N(Cc2cccc(F)c2)C1)C1CCCCCC1` (stereo unspecified), the “bacterial growth OD600” value (polymyxin B 1 µg/mL) stood at 0.945.

On to `COc1ccc(CCN2CC(NC(=O)c3oc(C)cc3C)CC2=O)cc1` (stereo unspecified), for which the “bacterial growth OD600” value (polymyxin B 1 µg/mL) was 0.868.

As to `Cc1ccccc1N1CCN(c2ncccc2CNC(=O)c2ncoc2C)CC1`, the “bacterial growth OD600” value (polymyxin B 1 µg/mL) came out at 0.03.

Take `O=C(NCCc1cnccn1)c1coc(COc2ccccc2)n1`: where the note is “polymyxin B 1 µg/mL”, the “bacterial growth OD600” value came to 0.948.

For the molecule `COC(=O)c1cc(CNC(=O)[C@@H]2C[C@@H]3C=C[C@H]2C3)cc(NS(=O)(=O)c2ccc3c(c2)OCCO3)c1`, for the setting “polymyxin B 0.75 µg/mL”, the “bacterial growth OD600” value was 0.883.

`CSCCCNC(=O)c1cccc(OC2CCN(S(=O)(=O)N(C)C)CC2)c1`: the “bacterial growth OD600” value (polymyxin B 1 µg/mL) is 0.936.

With `COCCC(=O)NC1CC(=O)N(Cc2cccc3ccccc23)C1` (stereo unspecified), the “bacterial growth OD600” value (polymyxin B 1 µg/mL) came to 0.952.

For `CSc1ccccc1C(=O)NC(C)c1cnn(-c2ccccn2)c1C` (stereo unspecified), the “bacterial growth OD600” value (polymyxin B 1 µg/mL) worked out at 1.23.
